Test results reported in PubChem BioAssay AID2061319 (National Center for Advancing Translational Sciences (NCATS), 2025).
Inconclusive results, whose numbers are uncertain, are shown with a selection of clear calls. A potency beside an inconclusive call is a rough fit, not a confirmed value. Activity calls are given as the source filed them. The call rests on the fitted dose curve; in most records, active means well fitted inhibition curve with a large enough effect; inconclusive means small, poorly fitted or top-dose-only effect; inactive means flat fitted curve, though single readings scatter. Square brackets hold non-standard residues; d marks the D form. Peptide text beside a SMILES is read from it. * marks the point of attachment. Dolaproine = CO[C@@H]([C@@H]1CCCN1)[C@@H](C)C(=O)O; Dil = CC[C@H](C)[C@H](NC)[C@@H](CC(=O)O)OC; NMe2Val = CC(C)[C@@H](C(=O)*)N(C)C; X1 = C[C@@H](N*)[C@@H](O)c1ccccc1; NMeV = CN[C@H](C(=O)O)C(C)C

Assay: Identification of antibody-drug conjugate (ADC) payloads which are substrates of ATP-binding cassette drug efflux transporters: ABCG2-H460-MX20 cell line with Ko143
Conditions: H460-MX20 (ABCG2) + Ko143, CellTiter-Glo viability, 48 h; series mostly up to 28.7 µM
From the text: Antibody-drug conjugates (ADCs) feature an antibody recognizing a specific protein joined to a potent toxic payload. Numerous antibody-drug conjugates have received FDA approval; however, clinical resistance arises. Resistance mechanisms include decreased expression or mutation of the antibody target, impaired payload release, or increased expression of ATP-binding cassette (ABC) efflux transporters associated with multidrug resistance. We therefore sought to characterize the interaction of ABC multidrug transporters with ADC payloads. We performed a high-throughput screen with 27 common ADC payloads using cells lines expressing ABC transporters P-glycoprotein (P-gp, encoded by ABCB1) or ABCG2 (encoded by ABCG2). Confirmatory assays were also performed using cells transfected to express P-gp, ABCG2, or MRP1 (encoded by ABCC1). Several commonly used ADC payloads were substrates of P-gp, including calicheamicin gamma1, monomethyl auristatin E, DM1, and DM4. All the pyrrolobenzodiazepines tested - SJG136, SGD-1882, SG2057, and SG3199 - were substrates of P-gp, ABCG2, and MRP1. […] These findings highlight the risk of transporter-mediated resistance with certain ADC payloads and underscore the importance of selecting payloads that evade ABC transporter recognition in future ADC development.
HEK-293 cells were transfected with empty vector (pcDNA) or vector containing the human ABCB1 (MDR-19), ABCG2 (R-5), or ABCC1 gene (MRP1) and were maintained in EMEM with 2 mg/mL G418 added to maintain transporter expression. The HeLa derivative KB-3-1 and the P-gp overexpressing KB-8-5-11 subline were maintained in DMEM; KB-8-5-11 additionally received 100 ng/mL colchicine. H460 parental cells were obtained from the Division of Cancer Treatment and Diagnosis Tumor Repository, National Cancer Institute at Frederick, MD and were cultured in RPMI. The ABCG2 expressing subline H460 MX20 was generated by selecting H460 cells in 20 nM mitoxantrone. Media in all cases was supplemented with 10% FBS and 1% penicillin-streptomycin. We explored 27 common ADC payloads, in two orthogonal, paired cell line sets-a drug selected and transfected set for each transporter--to identify substrates of the ABC transporters P-gp and ABCG2. Compounds were sourced from Levena Biopharma (San Diego, CA), Selleck Chem (Houston, TX), ChemieTek (Indianapolis, IN), or Microsource Discovery Systems (Gaylordsville, CT). Screening was performed as previously described. Briefly, cells were plated at a density of 500 cells/well in 1536 well plates with compounds added using a 1536-head pin tool (Kalypsys, San Diego CA). Cells were incubated with cytotoxic drugs and processed with CellTiter Glo reagent (Promega, Madison, WI) to determine viability after 48 hours. P-gp substrates were identified by comparing compound activity between paired sets of low-expressing (sensitive) and over-expressing (resistant) cell lines.

Row | Compound | Potency
1 | COc1cc2cc(c1Cl)N(C)C(=O)C[C@H](OC(=O)[C@H](C)N(C)C(=O)CCC(C)(C)S)[C@]1(C)OC1[C@H](C)C1C[C@@](O)(NC(=O)O1)[C@H](OC)/C=C/C=C(\C)C2 (some centres not stated) | inconclusive: 0.0084 µM [inhibitor, full curve]
2 | CC[C@H](C)[C@H](NC(=O)[C@H]1CCCCN1C)C(=O)N(C)[C@H](C[C@@H](OC(C)=O)c1nc(C(=O)O)cs1)C(C)C | inactive
3 | COc1cc2cc(c1Cl)N(C)C(=O)C[C@H](OC(=O)C(C)C)[C@]1(C)O[C@H]1[C@H](C)[C@@H]1C[C@@](O)(NC(=O)O1)[C@H](OC)C=CC=C(C)C2 | inconclusive: 0.0169 µM [inhibitor, full curve]
4 | CC[C@H](C)[C@@H]([C@@H](CC(=O)N1CCC[C@H]1[C@H](OC)[C@@H](C)C(=O)N[C@@H](Cc1ccccc1)C(=O)O)OC)N(C)C(=O)[C@@H](NC(=O)[C@H](C(C)C)N(C)C)C(C)C (NMe2Val-V[Dil][Dolaproine]F-OH) | inconclusive: 0.0671 µM [inhibitor, full curve, poor fit]
5 | CC[C@H](C)[C@@H]([C@@H](CC(=O)N1CCC[C@H]1[C@H](OC)[C@@H](C)C(=O)N[C@H](C)[C@@H](O)c1ccccc1)OC)N(C)C(=O)[C@@H](NC(=O)[C@@H](NC)C(C)C)C(C)C (H-[NMeV]V[Dil][Dolaproine]-X1) | inactive
6 | COc1cc2cc(c1Cl)N(C)C(=O)C[C@H](OC(=O)[C@H](C)N(C)C(=O)CCS)[C@]1(C)OC1[C@H](C)C1C[C@@](O)(NC(=O)O1)[C@H](OC)/C=C/C=C(\C)C2 (some centres not stated) | inconclusive: 0.015 µM [inhibitor, full curve, poor fit]
7 | CC[C@H](C)[C@H](NC(=O)[C@H]1CCCCN1C)C(=O)N(C)[C@H](C[C@@H](OC(C)=O)c1nc(C(=O)N[C@@H](Cc2ccccc2)C[C@H](C)C(=O)O)cs1)C(C)C | inactive
